Results on seven molecules are retold here after patent US11591294B2, “Fluorenone/fluorenol derivatives for aqueous redox flow batteries” (Battelle Memorial Institute, priority 2019, dated 2023).

Bounds are passed on as bounds.

Data set [1] can be described thus: Flow cell tests (aqueous redox flow battery, ferro/ferricyanide catholyte). The conditions noted are these: for discharge capacity: 0.5 M anolyte.
Data set [2] is described as follows: Cyclic voltammetry in aqueous 1 M NaOH. The class given is physicochemical. The conditions noted are these: glassy carbon. Here is the method: Electrochemical tests: CV measurements in aqueous phase were performed using a three-electrode configuration consisting of a glassy carbon working electrode (3 mm diameter), a glassy carbon counter electrode and an Ag/AgCl reference electrode. The electrolytes of 10 mM redox-active materials in 1.0 M NaOH were used. CV data were collected using a CHI760D potentiostat (CH Instruments) at a scan rate of 100 mV s^−1 (Hollas et al., Nature Energy 2018, 3:508-514). CV measurements in nonaqueous phase were performed using a three-electrode configuration consisting of a glassy carbon working electrode (3 mm diameter), a glassy carbon counter electrode and an Ag/AgNO3 (10 mM in Acetonitrile) as reference electrode or Ag wire as pseudo reference electrode (Inzelt et al., Handbook of Reference Electrodes, 2013, Springer). Tests were carried out in an argon-filled Mbraun glove box (Stratham, N.H., USA).
In view of the DFT calculation, it was theorized that functionalization of the FL ring structures with electron withdrawing groups such as —F, -sulfonamide, and —SO3−, among others, would shift the equilibrium constant to increase the concentration of deprotonated FL-OH anion/dianion relative to FL-OH, thereby improving the two-electron redox-reversibility of FLs. […] As expected, the CV curves with two pairs of peaks become clear and sharp with adding stronger electron withdrawing groups. The results of pH testing using DSFL as a model molecule also supported the radical anion intermediate stability was highly dependent on aqueous media pH level (FIG. 12). Reversibility was seen only at high pH, which confirmed the hypothesis of deprotonation enabling reversible oxidation.

Data set [3] is described as follows: Interdigitated flow cell test of 14N2CN3OHFL. The settings on record: 0.1 M.
The mark [4] stands for this setting: 1 M anolyte, 20 mA/cm^2, more than 200 cycles.
[5] abbreviates: 1 M anolyte, 50° C. in air, 100 mA cm^−2.

For `O=C(O)c1cc(S(=O)(=O)O)cc2c1-c1ccc(S(=O)(=O)O)cc1C2=O` [Compound 27S4CFL, 9-oxo-2,7-sulfo-9H-fluorene-4-carboxylic acid], the values for the discharge capacity in data set [1] (20 mA cm^−2) and in data set [1] (40 mA cm^−2) were 80% and roughly 70%, respectively.

On to `O=C(O)c1cccc2c1C(=O)c1cc(S(=O)(=O)[O-])ccc1-2.[K+]` [Compound 1C7SFL], for which, in data set [2], the “redox behaviour by cyclic voltammetry (in words)” value (“redox behaviour” below) is “irreversible reduction”.

`O=C1c2cc(Br)cc(S(=O)(=O)[O-])c2-c2c1cc(Br)cc2S(=O)(=O)[O-].[K+].[K+]` [Compound 27Br4SFL]: the “redox behaviour” value in data set [2] is given as “some enhancement of hydrogenated alcohol re-oxidation”.

On to `O=C1c2cc(S(=O)(=O)[O-])ccc2-c2ccc(S(=O)(=O)[O-])cc21.[K+].[K+]` [DSFL, Potassium 9-oxo-9H-fluorene-2,7-disulfonate], for which the “redox behaviour” value in data set [2] is “two separate one-electron reduction peaks and only one re-oxidation peak”.

Regarding `O=C1c2cc(O)ccc2-c2ccc(O)cc21` [DHFL, 9-oxo-2,7-dihydroxy-9H-fluorene], in data set [2], the “redox behaviour” value is reported as “irreversible reaction”.

As to `N#Cc1nc2c(nc1O)-c1ccccc1C2=O` [Compound 14N2CN3OHFL, 3-hydroxy-9-oxo-9H-indeno[1,2-b]pyrazine-2-carbonitrile], in data set [3] (20 mAcm^−2), the Columbic efficiency is on record as roughly 100%, the energy efficiency result is “above 80%” and the voltage efficiency entry is listed as “above 80%”. The molecule further returned a utilization in data set [3] (20 mAcm^−2, over 250 cycles) of roughly 30%.

Take `O=C(O)c1cccc2c1-c1ccc(S(=O)(=O)O)cc1C2=O` [Compound 4C7SFL, 9-Oxo-7-sulfo-9H-fluorene-4-carboxylic acid]: in data set [2], the “redox behaviour” value is “two separate one-electron reduction peaks and only one re-oxidation peak”. In data set [1] (20 mA cm^−2), this molecule yielded a discharge capacity of 30%. For the same molecule, the discharge capacity result in data set [1] (40 mA cm^−2) is reported as “less than 10%”. In data set [1] (1 M anolyte, 20 mA/cm^2), the anolyte volumetric capacity was determined as 39.3 Ah/L. Moreover, the stable discharge voltage result in data set [1] (1 M anolyte, 20 mA/cm^2, hundreds of cycles) is recorded as “over 1 V”. For the same molecule, in data set [1] (setting [4]), the “Coulombic efficiency (CE)” value is recorded as roughly 100% and the “energy efficiency (EE)” value is on record as roughly 80%. Moreover, in data set [1] (setting [5]), the EE turned out to be 70.6% and the VE is given as 70.8%. In data set [1] (1 M anolyte, 50° C. in air, 100 mA cm^−2, more than 700 cycles), the “average CE” value came to 99.8%. In addition, the “capacity retention per cycle” value in data set [1] (1 M anolyte, 16 days of cycling, 100 mA cm^−2, 50° C.) was determined as 99.98 % per cycle. In data set [1] (1 M anolyte, over 780 cycles, 100 mA cm^−2, 50° C.), the capacity retention came out at 88%. Besides, in data set [1] (1.36 M anolyte, 20 mA cm^−2), the EE was 92%, the VE amounted to 93% and the “material utilization percentage (two-electron basis)” value amounted to 72%. In data set [1] (1.36 M anolyte, 20 mA/cm^2), the “capacity fade per cycle” value turned out to be 0.000024 %/cycle and the “voltage at 50% of discharge capacity point” value was roughly 1.10 V. Besides, the “capacity fade per day” value in data set [1] (1.36 M anolyte, 20 mA/cm^2, 120 days) was 0.00022 %/day. In data set [1] (1.36 M anolyte, 20 mA/cm^2, 120 days (1111 cycles)), the “reversible capacity delivered over 1 V during discharge” value was greater than 96%. In data set [1] (1.36 M anolyte, 60 mA cm^−2), the EE stood at 78%, the VE turned out to be 79% and the “material utilization percentage (two-electron basis)” value worked out at 38%. In data set [1] (1.36 M anolyte, current densities 20-60 mA/cm^2), this molecule registered a discharge voltage greater than 1 V. Also, the capacity fade in data set [1] (1.36 M anolyte, cycle 17 to cycle 1111, 20 mA/cm^2) is listed as roughly 0.026%. Besides, in data set [1] (1.36 M anolyte, extended cycling), the “average Coulombic efficiency (CE)” value was roughly 100%. Moreover, the “overall energy efficiency (EE)” value in data set [1] (1.36 M anolyte, majority of the cycles) is “approximately 90%”. Besides, the capacity retention in data set [1] (1.4 M anolyte in 1 M NaOH, over 120 days of operation) turned out to be 97.38%.
